The values that follow come from PubChem BioAssay AID1347423 (Functional Genomics Laboratory (NCATS/FGL), 2020).

The campaign covered roughly 52,000 sequences. About 210 (0.4%) were called active.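 Rule for the calls: active = gene whose silencing raises cell survival under the drug, median off-target-corrected z-score across its silencing RNAs 2 or more; inactive = the rest.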 This is one part of the list.

A short description of the assay: Resistance to Poly (ADP-Ribose) Polymerase inhibitor: Gene Identification via Genome-wide siRNA Screen. To be noted: mouse BRCA2 R2336H ES cells, olaparib, CellTiter-Glo viability; active compounds read high. The method in brief:
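Genome-wide siRNA screen (3 siRNAs/gene, 20 nM) in mouse ES cells carrying hypomorphic BRCA2 R2336H; olaparib 500 nM added 48 h post-transfection, CellTiter-Glo viability 72 h later. Normalized to plate-median negative control; MAD z-scores, gene median, seed-adjusted.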
In general terms: In ATP-based viability assays light output follows the ATP content of the culture.
For the sequence CCCAAUCUCCAUCUAUGCCTT against Podxl, the z-score was inactive: 0.468. GGAUUUGGCUUUGUAACUUTT against Hnrpa2b1: the z-score is inactive: 0.264. As to CCGAUCACUCAUGGUUGACTT against Sra1, the z-score was inactive: -0.904. The same measure for GGAAAAAGGCAUCAAGUAUTT against Dhfr: inactive: 0.449; for CCGACACAUCAUGUUGACGTT against Zbtb9: inactive: -0.459. As for CGCGUUUCGUGUUUCAAAATT against Mus81, the z-score is inactive: 0.218. As for GGAUUUUGACAGUCUGUGUTT against Pp11r, the z-score is inactive: 1.17. The same measure for “CCUUAGGAUGACCUAAGGGTT against 1110063F24Rik”: inactive: 0.771; for GCUAUGAACCUCUAGGCAUTT against Bcl6b: inactive: 1.46. For the sequence CGCCGCAGUAUUAAUGGCUTT against Nxph4, the z-score is inactive: 3.47. For GGUGAGAUUUGUGGCUUUATT against Clstn1 the value was inactive: -0.457; for GACCACUUUAUGGAUGAGUTT against Stx1b2, inactive: -0.0604. For “GCUACAAUUGGCCUUAUCUTT against B930007M17Rik” the value was inactive: 0.294; for GGCUUUAGCUUACCAGAUGTT against Abcd2, inactive: -2.07.

Regarding GGCAUGGAAUCUGUUGUACTT against Olfr604, the z-score was inactive: -0.384.

In the case of CCCAUAGGGCUGAGGAACATT against Zfp53, the z-score was inactive: -0.39. As to GCGAGGUGCCAAUAUUUUCTT against Btbd9, the z-score was inactive: 0.369. Take GGAGUUCUUGGUCUCUUUGTT against BC031353: the z-score was inactive: 0.444. Regarding GCAGGCUUGUUCAAAUCCGTT against Pcm1, the z-score was inactive: 0.309. For the sequence GCAGGUACUAUUUGUGACGTT against Olfr30, the z-score was inactive: -0.496. For CCAGUGUUUCUCACUAAAUTT against Ube2j1 the value was inactive: 0.902. In the case of CGUGUUUCGACACCUCCUUTT against Trar3, the z-score was inactive: -1.47.

Regarding “GGAAGGAUGUAAGUUGUCCTT against D11Ertd530e”, the z-score is inactive: 0.37. On to “GGAUAUCCCAGACCCAUCATT against A230098A12Rik”, for which the z-score was inactive: 1.11. The same measure for GGUCAAAACUUCCAAUUGATT against Hmx3: inactive: 0.452.

Take “CGGGCAAGCUCCAAAUGAGTT against 1110004E09Rik”: the z-score was inactive: -0.466. The same measure for GGAAAACAAUCUCCUUCAATT against Olfr1260: inactive: 0.41. On to GGAGAACAUUGUUAUCUCGTT against Ngef, for which the z-score was inactive: 0.0707.

Turning to “GCCUGUCAGAUAAGUUUAATT against 2400008B06Rik”, the z-score was inactive: -0.931. On to “GGGUAUUAAGCAGGGAUCGTT against 1810009A15Rik”, for which the z-score was inactive: -1. On to GGGACAUGAAGGACACCAUTT against Olfr854, for which the z-score was inactive: -1.38. As to GGAUGAGGACGAGUUCGUUTT against C79127, the z-score was inactive: -2.38.

Consider GGAAGACCUGAUUGGAAAATT against Trpm1, for which the z-score is inactive: 0.553.

GGCGAACCUCUUCUCUGGATT against Glcci1: the z-score is inactive: -1.07.

On to CGUGAUGGGACUUGAGAAGTT against Epdd1, for which the z-score is inactive: -1.04. The same measure for GGAAAACUCCUCCUUAAUUTT against Wsb1: inactive: 1.66. For GGGAGCAACAGAGAGCUUUTT against Olfr212 the value was inactive: -1.7. For GGCACUAAAGCCAAAGUUCTT against Cldn11 the value was inactive: 0.0201; for GGAUGAAUGGAGAACUGAATT against AI173486, inactive: -1.2. On to “CCUGACGAUUGAGUAUCAUTT against D2Ertd435e”, for which the z-score was inactive: -1.85. For GGAAUUUUUUCUUGAUGGATT against Tubgcp5 the value was inactive: 0.628. On to “GGUUUGCCAAGAAAACUUATT against 3732413I11Rik”, for which the z-score is inactive: 0.094. For GGCAGAGGAGAAAAUCAAGTT against Cutl2 the value was inactive: 0.734; for GCACAGUUGCUUUACAUCGTT against Psca, inactive: 1.16; for GUCAUGCUUACUGUUCAGATT against V1rc13, inactive: 0.387. For the sequence GGGACAAGAAACUGGCUCUTT against Olfr1339, the z-score is inactive: 0.1. The same measure for GGCAACACGUUGAUUGUUGTT against Olfr750: inactive: -0.262; for “GCCAAACUUAGCGUGCUCATT against C130007D14”: inactive: -1.73. Turning to GCAAAAAUGGAAGUAUCUGTT against MGC58426, the z-score was inactive: 0.0817. Regarding GGUAAUGGUCAAAUUUGAUTT against Ahsg, the z-score is inactive: 0.673. As for GGCUGACAAAGAAGAAGCCTT against Dmrta2, the z-score was inactive: 0.452. The same measure for GGGAACCUUGUCAUGAUGATT against Tcd1d16: inactive: -0.552; for CCAUCAGGACUCGUGAAUGTT against Fign: inactive: -1.96. For “GCCAUUAAAGGUAACACUGTT against 4930511M11Rik” the value was inactive: 0.209. As for GGACAUCAAGAAGGACAAATT against Ppp2r5d, the z-score is inactive: -1.8. The same measure for “GCCUCUGUUCCAUCUUGGATT against F830104G03Rik”: inactive: -1.75; for “GCAGCAUCUAAGAGUGGCGTT against 1110030K22Rik”: inactive: -0.398; for “GGACACAAGUUUUCAGAUCTT against 9830169G11Rik”: inactive: 0.274. The same measure for GGACGGUGAGAUCUGUUUGTT against Clps: inactive: 1.14; for GCAACUGCCUAGGCUUGAUTT against Slc30a7: inactive: 0.931. In the case of GGAACUACAUCAUUCAGAATT against Tspyl1, the z-score was inactive: -0.378.

As for GCCUAAACAUUCAAAUCCCTT against Abcc3, the z-score is inactive: 1.28. For GAUCAUUCUCUUUUUCCUCTT against Olfr1095 the value was inactive: 0.694; for GGUUGUGAACAGCAUGUACTT against Ccr9, inactive: 1.5. For GCGGGUUAUCCUCUACUACTT against Col15a1 the value was inactive: 0.594; for GACAAGAACCCGGAUAAUATT against Dnajb10, inactive: 0.668. Turning to “CCCAAGCGGUAUCAUAUUUTT against 1200016B10Rik”, the z-score is inactive: -0.388. On to GGCAGAGGAUCGAGAAAAGTT against Dhrs4, for which the z-score is inactive: -0.225. Take CCCACCUUCAAGCAAGAACTT against Ifnk: the z-score was inactive: -1.19. With CCGUUUUCAUGCAUUGUUGTT against Olfr1377, the z-score is inactive: -0.963. The same measure for GGGAUUAAUAUUUUCCUCUTT against Pttg1ip: inactive: -1.37; for GGUUCUGUUUGUCACAUUCTT against Olfr1234: inactive: -0.16; for “GCCUGCUUAAGCUACUUAUTT against 2010011I20Rik”: inactive: 1.12. As to “CGUCUGAUCUAGAUGACUCTT against 8430410K20Rik”, the z-score was inactive: 0.122. Turning to GCAUAGUUGGAACCGUAUUTT against Tdpoz3, the z-score was inactive: 0.48. The same measure for CGACCUCGUCUACAUCUCCTT against Lrrn6a: inactive: -0.0269. For CCAUAAGCGAAAUGCCUUCTT against Areg the value was inactive: -1.01. For the sequence GGAUCGUGAUCCAUCAGAGTT against Rnf3, the z-score is inactive: -2.55. The same measure for GACACCACCAUCAAUCAACTT against Olfr338: inactive: 0.31; for CGAAGUUACGAGCAUCCACTT against Crhr2: inactive: 0.659. As for GGCCAUCUUGGACAGCAAGTT against Nt5m, the z-score is inactive: 0.743. The same measure for CGUUACCAUGAGAGUUAAUTT against Pcdhb19: inactive: 0.133. In the case of GGCCCAGUCAUGUCAAAUCTT against Olfr1346, the z-score was inactive: 0.239.

Regarding CCAUGAUUAAGGGUCUCUATT against Ldh1, the z-score was inactive: -1.26. For GGAUUCUGUGACCCUUGCATT against Lu, the z-score is inactive: -1.06. For “GCAUAUAAGAGAAGUGCCUTT against D16Ertd607e” the value was inactive: 0.207; for GGAGGUAGGAAUAUGACUUTT against Klrb1c, inactive: -1.51; for GCUAAUCAACAAUGUCGCCTT against Atp5b, inactive: -0.627.

Turning to GGAUUUGACACUGCUCCACTT against Arhgef6, the z-score was inactive: -0.909. The same measure for “GGGCUGCAUAUGACAAGGUTT against 1700025B16Rik”: inactive: 1.38; for GGCAGAGUUUCAAUGAGGUTT against Rras: inactive: 0.286; for CGGAGCAAUACAAACUUUATT against Olfr1263: inactive: -0.152.

With GCUUCCACAACUCAUAAAUTT against Esd, the z-score was inactive: 0.741. For “GCAGUGGGACAUAGUCAGATT against 1810008K16Rik” the value was inactive: -1.11; for GGUCUAUUAUGGCUUAAAGTT against Insl5, inactive: 0.234. The same measure for GGUCCUGUAUAAGACAGAATT against Fst: inactive: -1.19; for CCUAAACUCAGUGCCUCAGTT against Mrps36: inactive: 0.135. The same measure for GGAGCUCAAAACCUCCAAGTT against Odd1: inactive: 0.731; for GGUCAUGUAUUUCCUCAUCTT against Omp: inactive: -0.393; for CCUGUCCUCUGGGCAUAAUTT against Olfr1276: inactive: -0.249. On to GCUGUACCCGAAUGAGUUUTT against Mgat2, for which the z-score is inactive: 0.554. On to GGAACUGACAGAGCUUGAATT against Krtcap3, for which the z-score was inactive: -0.24. For GCCCAUGUGACGAUAACUGTT against Asrij the value was inactive: -0.997. The same measure for GGGUUUGGCUCGGUGUAUATT against Mos: inactive: -0.202.
